# Results of single-concentration screens

By UniProt entry, the sequences of proteins in these tests, tags left out. Residues count along the entry.
UniProt I6X8D2, whole entry: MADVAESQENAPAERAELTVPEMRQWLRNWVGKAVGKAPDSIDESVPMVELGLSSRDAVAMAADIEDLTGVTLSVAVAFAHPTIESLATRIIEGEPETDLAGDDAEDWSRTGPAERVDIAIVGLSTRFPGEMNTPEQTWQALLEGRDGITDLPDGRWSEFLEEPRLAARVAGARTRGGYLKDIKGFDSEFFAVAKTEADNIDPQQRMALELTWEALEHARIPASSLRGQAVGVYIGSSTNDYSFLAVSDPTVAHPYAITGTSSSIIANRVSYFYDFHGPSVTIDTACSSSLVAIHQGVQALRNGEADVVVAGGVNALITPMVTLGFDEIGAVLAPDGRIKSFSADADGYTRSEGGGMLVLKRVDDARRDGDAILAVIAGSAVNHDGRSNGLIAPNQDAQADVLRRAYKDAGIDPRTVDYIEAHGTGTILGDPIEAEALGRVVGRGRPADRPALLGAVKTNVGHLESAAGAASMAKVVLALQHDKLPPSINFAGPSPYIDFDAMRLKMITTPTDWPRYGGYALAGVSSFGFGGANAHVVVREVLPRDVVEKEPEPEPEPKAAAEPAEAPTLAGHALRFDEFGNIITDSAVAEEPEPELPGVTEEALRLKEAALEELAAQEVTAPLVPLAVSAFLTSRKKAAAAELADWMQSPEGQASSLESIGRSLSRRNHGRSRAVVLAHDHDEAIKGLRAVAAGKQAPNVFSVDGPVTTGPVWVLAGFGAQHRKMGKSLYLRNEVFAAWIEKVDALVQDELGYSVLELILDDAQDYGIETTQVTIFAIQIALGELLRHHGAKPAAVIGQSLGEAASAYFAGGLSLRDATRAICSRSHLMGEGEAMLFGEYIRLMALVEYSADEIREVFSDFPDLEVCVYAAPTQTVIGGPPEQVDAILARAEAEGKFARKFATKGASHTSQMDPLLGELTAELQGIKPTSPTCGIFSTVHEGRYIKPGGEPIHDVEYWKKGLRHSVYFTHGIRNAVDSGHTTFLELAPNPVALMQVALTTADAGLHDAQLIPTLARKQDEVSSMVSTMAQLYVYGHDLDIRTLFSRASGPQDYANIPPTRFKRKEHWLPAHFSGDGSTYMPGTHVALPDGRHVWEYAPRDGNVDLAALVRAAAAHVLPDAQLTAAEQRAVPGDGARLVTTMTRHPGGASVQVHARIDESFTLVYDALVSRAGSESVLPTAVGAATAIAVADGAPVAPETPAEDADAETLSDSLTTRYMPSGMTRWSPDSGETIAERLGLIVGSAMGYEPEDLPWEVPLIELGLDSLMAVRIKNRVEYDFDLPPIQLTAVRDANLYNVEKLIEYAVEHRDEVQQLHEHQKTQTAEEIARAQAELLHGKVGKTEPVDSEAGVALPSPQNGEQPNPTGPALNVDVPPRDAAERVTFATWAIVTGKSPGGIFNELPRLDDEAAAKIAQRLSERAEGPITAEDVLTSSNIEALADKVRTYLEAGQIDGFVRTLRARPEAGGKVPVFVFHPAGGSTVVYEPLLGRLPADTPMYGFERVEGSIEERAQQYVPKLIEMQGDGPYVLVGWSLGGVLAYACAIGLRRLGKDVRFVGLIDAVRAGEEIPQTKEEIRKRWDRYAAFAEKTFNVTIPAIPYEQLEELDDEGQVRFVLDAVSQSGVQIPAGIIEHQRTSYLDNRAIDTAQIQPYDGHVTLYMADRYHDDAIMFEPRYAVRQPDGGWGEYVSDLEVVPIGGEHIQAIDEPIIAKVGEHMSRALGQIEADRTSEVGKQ
UniProt Q4DA54, 1-478: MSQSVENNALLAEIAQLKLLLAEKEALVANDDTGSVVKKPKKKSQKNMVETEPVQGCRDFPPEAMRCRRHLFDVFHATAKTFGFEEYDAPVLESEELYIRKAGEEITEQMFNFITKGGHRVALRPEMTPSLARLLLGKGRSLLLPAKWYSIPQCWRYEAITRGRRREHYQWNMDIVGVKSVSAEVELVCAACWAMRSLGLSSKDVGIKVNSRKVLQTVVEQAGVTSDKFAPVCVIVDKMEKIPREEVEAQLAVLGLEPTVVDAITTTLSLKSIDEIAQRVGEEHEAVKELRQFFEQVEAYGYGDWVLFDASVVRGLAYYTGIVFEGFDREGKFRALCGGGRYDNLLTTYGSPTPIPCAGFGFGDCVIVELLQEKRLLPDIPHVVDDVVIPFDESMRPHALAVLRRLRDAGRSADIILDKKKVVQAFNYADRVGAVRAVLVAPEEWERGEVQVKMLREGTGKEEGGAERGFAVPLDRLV
UniProt P9WPC5, whole entry: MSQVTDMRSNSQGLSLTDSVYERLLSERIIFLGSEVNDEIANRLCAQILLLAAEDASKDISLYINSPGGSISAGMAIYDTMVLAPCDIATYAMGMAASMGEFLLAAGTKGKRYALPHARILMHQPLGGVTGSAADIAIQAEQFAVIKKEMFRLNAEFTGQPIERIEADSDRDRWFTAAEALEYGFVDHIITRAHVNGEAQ
UniProt P9WPC3, whole entry partner: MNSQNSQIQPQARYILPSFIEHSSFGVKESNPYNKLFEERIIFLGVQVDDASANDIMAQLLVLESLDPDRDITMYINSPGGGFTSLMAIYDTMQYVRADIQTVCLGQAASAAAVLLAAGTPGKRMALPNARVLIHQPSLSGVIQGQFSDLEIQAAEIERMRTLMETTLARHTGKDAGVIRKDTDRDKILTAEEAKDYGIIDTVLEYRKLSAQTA
UniProt A4I591, 1-473: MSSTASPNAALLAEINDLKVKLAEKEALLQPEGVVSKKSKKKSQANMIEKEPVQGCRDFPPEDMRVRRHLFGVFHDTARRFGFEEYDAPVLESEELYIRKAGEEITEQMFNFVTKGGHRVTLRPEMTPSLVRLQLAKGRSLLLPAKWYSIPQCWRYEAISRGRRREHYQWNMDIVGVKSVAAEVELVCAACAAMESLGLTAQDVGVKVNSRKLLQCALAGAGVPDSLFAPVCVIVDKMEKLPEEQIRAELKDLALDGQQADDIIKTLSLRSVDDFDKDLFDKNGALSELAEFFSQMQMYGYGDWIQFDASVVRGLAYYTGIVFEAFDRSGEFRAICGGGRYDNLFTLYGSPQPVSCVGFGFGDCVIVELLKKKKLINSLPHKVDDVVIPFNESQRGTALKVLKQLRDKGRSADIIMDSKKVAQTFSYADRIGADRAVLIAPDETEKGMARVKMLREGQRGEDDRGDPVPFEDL

Values are the deposited “Percent Effect”, in %.
The record does not define 0% and 100%; most values in the screen are far below 50% and negative numbers occur (in some assays of this library far below -100).
The compounds are a random part of those screened.

Pks13 thioesterase: 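Polyketide synthase Pks13, Mycobacterium tuberculosis (UniProt I6X8D2). Enzyme assay of the thioesterase domain of polyketide synthase 13; the read-out is not stated. Tested at 30 µM. Higher reads as stronger inhibition (inferred from which compounds were picked for retests). Of about 67,000 compounds tested this way, about 300 (0.46%) reached 50% or more in at least one test.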
TcHisRS: 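Enzyme assay of histidyl-tRNA synthetase; the read-out is not stated. Target: Histidine-tRNA ligase, Trypanosoma cruzi CL Brener (UniProt Q4DA54). Tested at 30 µM. Direction is inferred from retests: higher values go with stronger inhibition. Size under these conditions: about 69,000 compounds, about 31 of them at 50% or above in at least one test.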
ClpP1P2: 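ClpP1P2, Mycobacterium tuberculosis (UniProt P9WPC5 and UniProt P9WPC3). Protease assay of ClpP1P2, read by the AMC dye that it sets free. Concentration: 50 µM. Direction is inferred from only a few compounds that gave an IC50; most scored high, so higher reads as stronger inhibition. Most other retested compounds had strongly negative values. About 69,000 compounds were tested under these conditions; 0.015% (about 10) showed 50% or more at least once.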
Leishmania in macrophages: 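Cell assay of Leishmania donovani living inside macrophages; the read-out is not stated. Tested at 30 µM. Direction is inferred from retests: higher values go with stronger inhibition. Size under these conditions: about 69,000 compounds, about 1,000 of them at 50% or above in at least one test.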
LiHisRS: 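Enzyme assay of histidyl-tRNA synthetase; the read-out is not stated. Target: Histidine-tRNA ligase, Leishmania infantum (UniProt A4I591). Concentration: 30 µM. The record gives no direction; compounds that gave an IC50 in retests scored well above the rest, so higher reads as stronger inhibition. The assay is labelled LdHisRS but filed under L. infantum. Size under these conditions: about 69,000 compounds, about 410 of them at 50% or above in at least one test.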

For COc1ccc(C(=O)N2CCCC2c2ccco2)cc1OC (configuration not stated) the result was Pks13 thioesterase: -7.008%; TcHisRS: 2.174%; ClpP1P2: -9.123%; Leishmania in macrophages: -2.998%; LiHisRS: 8.738%. For O=C1NCC2(CCCN(C(=O)c3c[nH]nc3-c3cccs3)C2)O1 (configuration not stated) the result was Pks13 thioesterase: 1.459%; TcHisRS: 8.247%; ClpP1P2: 4.412%; Leishmania in macrophages: 22.27%; LiHisRS: 10.34%. With CC(c1nc(C2CC2)no1)N1CCN(Cc2cccc(C#N)c2)CC1 (configuration not stated) the screen gave Pks13 thioesterase: -6.133%; TcHisRS: -0.7634%; ClpP1P2: 3.929%; Leishmania in macrophages: 18.39%; LiHisRS: 25.53%. CC(C)N(C)Cc1cncc2c1CCN(C1CCOCC1)C2 gave Pks13 thioesterase: -0.101%; TcHisRS: 3.333%; ClpP1P2: -6.636%; LiHisRS: 11.32%. FC(F)(F)c1ccc(CNC[C@H]2COCc3nc4cccnc4n32)cc1 gave Pks13 thioesterase: -30.64%; TcHisRS: 3.483%; ClpP1P2: -18.67%; Leishmania in macrophages: 15%; LiHisRS: 19.44%. For Cc1nc(C)c(C(=O)N2Cc3cc(F)ccc3CC2C)o1 (configuration not stated) the result was Pks13 thioesterase: -25.46%; TcHisRS: 4.124%; ClpP1P2: -2.912%; Leishmania in macrophages: 21.52%; LiHisRS: 8.571%. For CN(CCNC(=O)c1cnc(-c2ccccc2)nc1)S(C)(=O)=O the result was Pks13 thioesterase: -2.09%; TcHisRS: 2.4%; ClpP1P2: -10.06%; Leishmania in macrophages: -22.91%; LiHisRS: -3.279%. CNC(=O)C1(Cc2cc(C(C)C)no2)CCN(Cc2cccnc2)C1 (configuration not stated) gave Pks13 thioesterase: 23.63%; TcHisRS: 9.848%; ClpP1P2: -5.731%; Leishmania in macrophages: 13.03%; LiHisRS: 9.859%.

O=S(=O)(NCC1(c2cccs2)CCOCC1)c1ccc2c(c1)OCCO2 read Pks13 thioesterase: -7.54%; TcHisRS: -2.646%; ClpP1P2: -1.492%; Leishmania in macrophages: 15.28%; LiHisRS: 28%. COc1cccc(N2CCN(Cc3ccc(NC(C)=O)cc3)CC2=O)c1 gave Pks13 thioesterase: -6.167%; TcHisRS: -0.813%; ClpP1P2: -3.639%; Leishmania in macrophages: 6.72%; LiHisRS: 20.19%. For O=C(CN1CCCC1=O)NCc1cccnc1Oc1ccc(F)c(F)c1 the result was Pks13 thioesterase: 4.831%; TcHisRS: 3.922%; ClpP1P2: -7.924%; Leishmania in macrophages: -10.97%; LiHisRS: 3.2%. O=C(c1cccc(NCCO)c1)N1CCOCC1 gave Pks13 thioesterase: -4.056%; TcHisRS: -0.8368%; ClpP1P2: 11.21%; Leishmania in macrophages: -6.847%; LiHisRS: 8.491%. For COCCN(Cc1nccs1)C(=O)c1cc(-c2ccc(C)s2)n[nH]1 the result was Pks13 thioesterase: -41.32%; TcHisRS: 2.793%; ClpP1P2: -4.009%; Leishmania in macrophages: -0.3122%; LiHisRS: 7.895%. For COCCNC(=O)C(C)N1CCN(C)CC1 (configuration not stated) the result was Pks13 thioesterase: 6.046%; TcHisRS: 0%; ClpP1P2: -11.71%; LiHisRS: 5.634%. For COc1ccc(CNC(=O)N2CCN(CC(O)C3CC3)CC2)cc1.Cl (configuration not stated) the result was Leishmania in macrophages: 12.21%. Result for c1ccc(CN2CCc3ncnc(-c4ccoc4)c3CC2)nc1 was Pks13 thioesterase: -4.507%; TcHisRS: 15.76%; ClpP1P2: -70.27%; LiHisRS: 20.59%.

CN(C)Cc1cc(=O)n2c(n1)CN(S(=O)(=O)C1CC1)CCC2.O=C(O)C(F)(F)F read Leishmania in macrophages: 38.8%. Result for CC(C)N(C)Cc1cn2c(n1)CN(C(=O)Cc1ccccc1)CC2 was Pks13 thioesterase: 2.805%; TcHisRS: 7.035%; ClpP1P2: 2.695%; LiHisRS: 13.83%. For CN(C)c1nccc(C2CCN(C(=O)CO)CC2)n1 the result was Pks13 thioesterase: -16.99%; TcHisRS: -0.7605%; ClpP1P2: -8.385%; Leishmania in macrophages: -0.2863%; LiHisRS: -0.6897%. For COCCCN(Cc1cnc(-c2ccccn2)nc1)C1CCN(C)CC1 the result was Pks13 thioesterase: -18.03%; TcHisRS: 2.488%; ClpP1P2: -0.4167%; Leishmania in macrophages: 6.621%; LiHisRS: 0%. For COc1ccccc1Oc1ncccc1CNC(=O)[C@@H](C)NC(C)=O the result was Pks13 thioesterase: -2.933%; TcHisRS: 5.691%; ClpP1P2: -12.84%; Leishmania in macrophages: -8.7%; LiHisRS: 6.731%. For COC(=O)CCC(=O)N1CCc2nc(C(=O)N3CCCCC3)sc2CC1 the result was Pks13 thioesterase: -37.4%; TcHisRS: 2.532%; ClpP1P2: -4.799%; Leishmania in macrophages: 27.05%; LiHisRS: 3.448%. For CCN(c1ccccc1)S(=O)(=O)c1cc(C(=O)O)cc2c1CCC2 the result was Pks13 thioesterase: 24.14%; TcHisRS: 1.316%; ClpP1P2: 5.103%; Leishmania in macrophages: -4.131%; LiHisRS: -0.8333%. With Cn1c(C(=O)N2CCOCC2)nc2c1CCN(c1ncccn1)C2 the screen gave Pks13 thioesterase: -2.523%; TcHisRS: 10.13%; ClpP1P2: 3.833%; Leishmania in macrophages: 15.85%; LiHisRS: 12.07%.

CCn1cc(CN2CCCN(C(=O)CCc3ccncc3)CC2)cn1 gave Pks13 thioesterase: -20.73%; TcHisRS: 1.527%; ClpP1P2: 27.16%; Leishmania in macrophages: 36.35%; LiHisRS: 19.18%.

Source: ChEMBL document CHEMBL3988442, “University of Dundee, Small-Polar-MMV Screening Library” (2021).